Laboratory results reported in patent publication US9649392B2, “Central nervous system labelling composition for intranasal administration and labelling method and screening method using central nervous system labelling composition for intranasal administration” (CANON KABUSHIKI KAISHA, priority 2009, dated 2017).
For at least one compound, name, drawing or mass did not settle the structure.

Test system: central nervous system of the zebrafish
Assay: dyeing of the central nervous system of juvenile zebrafish after exposure to dye solution, fluorescence/confocal microscope observation over time
Assay type: in vivo
Conditions: 7 dpf juvenile zebrafish, dye solution 500 ng/mL, left 1 hour, washed, observed at time intervals
Method: Distilled water was added to a 1 mg/mL DMSO solution of compound 1 (as expressed by the formula (5) above) to obtain a dye solution 1 containing the compound 1 to a concentration of 200 ng/mL. 1 mL of the dye solution 1 and a 7-day-old (7 dpf) juvenile fish of zebrafish were put into an arbitrarily selected well of a 24-hole multi plate (available from IWAKI) and left there for an hour. Thereafter, the dye solution 1 in the well was removed and an operation of replacing it with 1 mL of distilled water was repeated three times in ten minutes. The elapsed time after the last solution replacing operation was measured and the juvenile fish was taken out from the well when a predetermined time period had elapsed. The juvenile fish was buried in 5% low melting-point agarose gel on a glass slide to restrict any movement and the dyed state of the central nervous system of the zebrafish was observed from a lateral side and the vertex by using fluorescent microscope (MZ16FA: available from Leica). The central nervous system was observed by means of a confocal microscope (Pascal Exciter: available from Zeiss). After the observation, the zebrafish was returned into the well and repeatedly observed thereafter at regular time intervals. […]

With `O=C1OC2(c3ccc(O)cc3Oc3cc(O)ccc32)c2ccccc21` [fluorescein, reference compound] the “dyed state of the central nervous system (transfer of dyeability with time from nasal cavity via olfactory bulb)” value was “no transfer with time of dyeability to the central nervous system was observed”.
